PubChem BioAssay AID504808 | Drosophila RNAi Screening Center | 2011

- Aim: 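Fly genes required to hold E2F transcription in check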 (primary screen)
- Cells: Drosophila S2 cells
- Knock-down reagent: long dsRNA against Drosophila genes
- Measured: 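Firefly luciferase driven by E2F sites, normalised to Renilla luciferase on the same minimal promoter, measured by plate reader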
- Reading the numbers: E2F firefly: higher = more E2F reporter activity; Renilla normaliser: higher = more normaliser reporter signal
- Call rule: 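Called active if the normalised E2F reporter went up by over 50%; the cutoff is arbitrary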
The deposit covers about 21,000 reagents; shown is an unselected part of those that have a named target and a result. Over the whole deposit, 18 (0.084%) are marked active. 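Raw counts without plate normalisation, one of two replicates; the ratio scores behind the calls were not deposited.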 The numbers tell different reagents against one gene apart. Not given: the amount of reagent, the time to read-out.

With knock-down of mod(mdg4) (modifier of mdg4) #1, the record shows E2F firefly, rep 1 = 81401; Renilla normaliser, rep 1 = 2740; inactive.
mod(mdg4) (modifier of mdg4) #2 gave E2F firefly, rep 1 = 74350; Renilla normaliser, rep 1 = 2584; inactive.
Knock-down of mod(mdg4) (modifier of mdg4) #3 came out at: E2F firefly, rep 1 = 84765; Renilla normaliser, rep 1 = 2553; inactive.
mod(mdg4) (modifier of mdg4) #4 scored E2F firefly, rep 1 = 82492; Renilla normaliser, rep 1 = 2460; inactive.
After knock-down of mod(mdg4) (modifier of mdg4) #5, the record shows E2F firefly, rep 1 = 1.42e5; Renilla normaliser, rep 1 = 7815; inactive.
mod(mdg4) (modifier of mdg4) #6 showed E2F firefly, rep 1 = 75110; Renilla normaliser, rep 1 = 5077; inactive.
For ZnT41F (Zinc transporter 41F), the entry reads E2F firefly, rep 1 = 86726; Renilla normaliser, rep 1 = 3561; inactive.
With knock-down of rdo (reduced ocelli), the screen gave E2F firefly, rep 1 = 87570; Renilla normaliser, rep 1 = 3732; inactive.
Knock-down of Rip11 (Rab11 interacting protein) came out at: E2F firefly, rep 1 = 1.53e5; Renilla normaliser, rep 1 = 5171; inactive.
Rab35 scored E2F firefly, rep 1 = 1.52e5; Renilla normaliser, rep 1 = 5016; inactive.
After knock-down of l(2)SH0834 (lethal (2) SH0834), the record shows E2F firefly, rep 1 = 1.25e5; Renilla normaliser, rep 1 = 5711; inactive.
After knock-down of flw (flapwing) #1, the record shows E2F firefly, rep 1 = 44603; Renilla normaliser, rep 1 = 4178; inactive.
flw (flapwing) #2 gave E2F firefly, rep 1 = 46211; Renilla normaliser, rep 1 = 4715; inactive.
With knock-down of CG12099, the record shows E2F firefly, rep 1 = 1.03e5; Renilla normaliser, rep 1 = 4971; inactive.
Depletion of CG7255 gave: E2F firefly, rep 1 = 72590; Renilla normaliser, rep 1 = 2946; inactive.
Against CG42258 #1 the deposit lists E2F firefly, rep 1 = 67692; Renilla normaliser, rep 1 = 3510; inactive.
Against CG42258 #2 the deposit lists E2F firefly, rep 1 = 95547; Renilla normaliser, rep 1 = 4123; inactive.

4 neighbouring records from above, quoted:
flw (flapwing) #2 — E2F firefly, rep 1: 46211; Renilla normaliser, rep 1: 4715; outcome: inactive
CG12099 — E2F firefly, rep 1: 1.03e5; Renilla normaliser, rep 1: 4971; outcome: inactive
CG7255 — E2F firefly, rep 1: 72590; Renilla normaliser, rep 1: 2946; outcome: inactive
CG42258 #1 — E2F firefly, rep 1: 67692; Renilla normaliser, rep 1: 3510; outcome: inactive

Additional records:
Depletion of Ccp84Ad gave: E2F firefly, rep 1 = 1.15e5; Renilla normaliser, rep 1 = 6121; inactive.
Against l(2)37Cd (lethal (2) 37Cd), the values are E2F firefly, rep 1 = 79148; Renilla normaliser, rep 1 = 3155; inactive.
Depletion of CG11619 resulted in: E2F firefly, rep 1 = 1.34e5; Renilla normaliser, rep 1 = 6377; inactive.
CG7135 gave E2F firefly, rep 1 = 1.47e5; Renilla normaliser, rep 1 = 6347; inactive.
Pvf3 (PDGF- and VEGF-related factor 3) #1 scored E2F firefly, rep 1 = 1.51e5; Renilla normaliser, rep 1 = 4486; inactive.
For Pvf3 (PDGF- and VEGF-related factor 3) #2 the deposit lists E2F firefly, rep 1 = 1.42e5; Renilla normaliser, rep 1 = 4637; inactive.
Knock-down of Pvf3 (PDGF- and VEGF-related factor 3) #3 resulted in: E2F firefly, rep 1 = 1.40e5; Renilla normaliser, rep 1 = 4598; inactive.
Against Pvf3 (PDGF- and VEGF-related factor 3) #4, the entry reads E2F firefly, rep 1 = 1.50e5; Renilla normaliser, rep 1 = 5298; inactive.
After knock-down of CG11590, the screen gave E2F firefly, rep 1 = 1.49e5; Renilla normaliser, rep 1 = 6209; inactive.
With knock-down of Nak (Numb-associated kinase), the record shows E2F firefly, rep 1 = 85637; Renilla normaliser, rep 1 = 3500; inactive.
CG31198 scored E2F firefly, rep 1 = 71182; Renilla normaliser, rep 1 = 3152; inactive.
For Tps1 (Trehalose-6-phosphate synthase 1) the deposit lists E2F firefly, rep 1 = 87904; Renilla normaliser, rep 1 = 3716; inactive.
With knock-down of lov (jim lovell) #1, the screen gave E2F firefly, rep 1 = 1.21e5; Renilla normaliser, rep 1 = 4717; inactive.
Against lov (jim lovell) #2, the values are E2F firefly, rep 1 = 1.14e5; Renilla normaliser, rep 1 = 4917; inactive.
With knock-down of CG32110, the screen gave E2F firefly, rep 1 = 1.31e5; Renilla normaliser, rep 1 = 3938; inactive.
For C15 #1, the values are E2F firefly, rep 1 = 64227; Renilla normaliser, rep 1 = 2847; inactive.
For C15 #2, the values are E2F firefly, rep 1 = 93716; Renilla normaliser, rep 1 = 5979; inactive.
With knock-down of Mef2 (Myocyte enhancer factor 2) the results were E2F firefly, rep 1 = 2635; Renilla normaliser, rep 1 = 192; inactive.
After knock-down of slp1 (sloppy paired 1), the screen gave E2F firefly, rep 1 = 74755; Renilla normaliser, rep 1 = 3937; inactive.
